PubChem BioAssay AID1224829, NIAID | 2016
The whole screen tested about 3,800 reagents; shown is a part drawn at random. 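Calls cover raised and lowered translocation; gene median uses one vendor's three siRNAs; qiagen siRNAs acted more weakly than ambion siRNAs.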 The numbers tell different reagents against one gene apart. Further read-outs or replicates are left out here. No sequences are given here.

- Aim: 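Follow-up of TLR4-NF-kappaB regulators using six separate siRNAs for each gene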 (follow-up of hits)
- Cells: mouse RAW264.7 G9 macrophage reporter cells
- Knock-down reagent: single siRNA against mouse genes, 100 nM
- Duration: 2 days of siRNA knock-down, then 40 min of LPS before fixing
- Treatment: LPS (Salmonella minnesota R595) at 10 ng/ml
- Detection: 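Imaging of GFP-p65 after 40 min of LPS; nuclear over perinuclear ring intensity ratio, scaled to plate median and non-targeting control wells, given as z-score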
- Direction: p65 translocation z-score: higher = more nuclear NF-kappaB p65 after LPS
- Call rule: 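An siRNA is called active when the mean z-score of its two replicates is above 2 or below -2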
- Meaning of the calls: active = changed p65 translocation (either direction); inactive = no clear change

p65 translocation z-score, replicate mean | p65 translocation z-score, replicate 1 | call | target gene | siRNA no. | siRNA vendor or control pool
-2.81 | -3.7 | active | Ikzf1 (IKAROS family zinc finger 1) | 1 | ambion single siRNA
-2.67 | -3.4 | active | Ikzf1 (IKAROS family zinc finger 1) | 2 | ambion single siRNA
-3.79 | -3.76 | active | Ikzf1 (IKAROS family zinc finger 1) | 3 | ambion single siRNA
0.922 | -0.695 | inactive | Ikzf1 (IKAROS family zinc finger 1) | 4 | qiagen single siRNA
3.96 | 3.96 | active | Ikzf1 (IKAROS family zinc finger 1) | 5 | qiagen single siRNA
-1.7 | -2.17 | inactive | Ikzf1 (IKAROS family zinc finger 1) | 6 | qiagen single siRNA
3.5 | 4.82 | active | Psmb5 (proteasome (prosome, macropain) subunit, beta type 5) | 1 | ambion single siRNA
-0.642 | -0.415 | inactive | Psmb5 (proteasome (prosome, macropain) subunit, beta type 5) | 2 | ambion single siRNA
-3.01 | -1.47 | active | Psmb5 (proteasome (prosome, macropain) subunit, beta type 5) | 3 | ambion single siRNA
1.92 | 0.071 | inactive | Psmb5 (proteasome (prosome, macropain) subunit, beta type 5) | 4 | qiagen single siRNA
-0.836 | -1.44 | inactive | Psmb5 (proteasome (prosome, macropain) subunit, beta type 5) | 5 | qiagen single siRNA
-2.24 | -2.79 | active | Psmb5 (proteasome (prosome, macropain) subunit, beta type 5) | 6 | qiagen single siRNA
-2.21 | -2.28 | active | Man2b2 (mannosidase 2, alpha B2) | 1 | ambion single siRNA
-2.04 | -2.02 | active | Man2b2 (mannosidase 2, alpha B2) | 2 | ambion single siRNA
-2.98 | -2.98 | active | Man2b2 (mannosidase 2, alpha B2) | 3 | ambion single siRNA
1.79 | 1.41 | inactive | Man2b2 (mannosidase 2, alpha B2) | 4 | qiagen single siRNA
0.612 | 1.18 | inactive | Man2b2 (mannosidase 2, alpha B2) | 5 | qiagen single siRNA
-2.36 | -2.18 | active | Man2b2 (mannosidase 2, alpha B2) | 6 | qiagen single siRNA
-1.11 | -0.732 | inactive | Heatr5a (HEAT repeat containing 5A) | 1 | ambion single siRNA
-1.48 | -2.18 | inactive | Heatr5a (HEAT repeat containing 5A) | 2 | ambion single siRNA
-2.74 | -2.01 | active | Heatr5a (HEAT repeat containing 5A) | 3 | ambion single siRNA
1.89 | 1.89 | inactive | Heatr5a (HEAT repeat containing 5A) | 4 | qiagen single siRNA
0.422 | -0.474 | inactive | Heatr5a (HEAT repeat containing 5A) | 5 | qiagen single siRNA
2.82 | 1.84 | active | Heatr5a (HEAT repeat containing 5A) | 6 | qiagen single siRNA

In a second layout: 4 of the entries above.
"p65 translocation z-score, replicate mean","p65 translocation z-score, replicate 1",call,target gene,siRNA no.,siRNA vendor or control pool
0.922,-0.695,inactive,Ikzf1 (IKAROS family zinc finger 1),4,qiagen single siRNA
3.96,3.96,active,Ikzf1 (IKAROS family zinc finger 1),5,qiagen single siRNA
-1.7,-2.17,inactive,Ikzf1 (IKAROS family zinc finger 1),6,qiagen single siRNA
3.5,4.82,active,"Psmb5 (proteasome (prosome, macropain) subunit, beta type 5)",1,ambion single siRNA
